## Library screen at single concentrations

The chains behind the UniProt entries cited, without tags or fusion partners. Residues count along the entry.
UniProt A4I591, 1-473: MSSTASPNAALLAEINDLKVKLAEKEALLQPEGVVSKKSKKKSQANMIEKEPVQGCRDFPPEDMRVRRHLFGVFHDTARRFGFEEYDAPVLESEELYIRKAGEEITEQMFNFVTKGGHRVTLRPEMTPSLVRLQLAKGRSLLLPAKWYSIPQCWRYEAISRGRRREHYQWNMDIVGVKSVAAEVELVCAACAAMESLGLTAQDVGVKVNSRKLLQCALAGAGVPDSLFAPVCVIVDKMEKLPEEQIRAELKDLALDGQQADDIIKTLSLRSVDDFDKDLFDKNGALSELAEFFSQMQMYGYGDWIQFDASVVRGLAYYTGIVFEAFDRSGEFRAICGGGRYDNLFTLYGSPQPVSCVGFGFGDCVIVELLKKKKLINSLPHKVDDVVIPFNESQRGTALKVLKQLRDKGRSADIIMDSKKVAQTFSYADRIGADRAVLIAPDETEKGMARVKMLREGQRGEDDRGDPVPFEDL
UniProt I6X8D2, whole entry: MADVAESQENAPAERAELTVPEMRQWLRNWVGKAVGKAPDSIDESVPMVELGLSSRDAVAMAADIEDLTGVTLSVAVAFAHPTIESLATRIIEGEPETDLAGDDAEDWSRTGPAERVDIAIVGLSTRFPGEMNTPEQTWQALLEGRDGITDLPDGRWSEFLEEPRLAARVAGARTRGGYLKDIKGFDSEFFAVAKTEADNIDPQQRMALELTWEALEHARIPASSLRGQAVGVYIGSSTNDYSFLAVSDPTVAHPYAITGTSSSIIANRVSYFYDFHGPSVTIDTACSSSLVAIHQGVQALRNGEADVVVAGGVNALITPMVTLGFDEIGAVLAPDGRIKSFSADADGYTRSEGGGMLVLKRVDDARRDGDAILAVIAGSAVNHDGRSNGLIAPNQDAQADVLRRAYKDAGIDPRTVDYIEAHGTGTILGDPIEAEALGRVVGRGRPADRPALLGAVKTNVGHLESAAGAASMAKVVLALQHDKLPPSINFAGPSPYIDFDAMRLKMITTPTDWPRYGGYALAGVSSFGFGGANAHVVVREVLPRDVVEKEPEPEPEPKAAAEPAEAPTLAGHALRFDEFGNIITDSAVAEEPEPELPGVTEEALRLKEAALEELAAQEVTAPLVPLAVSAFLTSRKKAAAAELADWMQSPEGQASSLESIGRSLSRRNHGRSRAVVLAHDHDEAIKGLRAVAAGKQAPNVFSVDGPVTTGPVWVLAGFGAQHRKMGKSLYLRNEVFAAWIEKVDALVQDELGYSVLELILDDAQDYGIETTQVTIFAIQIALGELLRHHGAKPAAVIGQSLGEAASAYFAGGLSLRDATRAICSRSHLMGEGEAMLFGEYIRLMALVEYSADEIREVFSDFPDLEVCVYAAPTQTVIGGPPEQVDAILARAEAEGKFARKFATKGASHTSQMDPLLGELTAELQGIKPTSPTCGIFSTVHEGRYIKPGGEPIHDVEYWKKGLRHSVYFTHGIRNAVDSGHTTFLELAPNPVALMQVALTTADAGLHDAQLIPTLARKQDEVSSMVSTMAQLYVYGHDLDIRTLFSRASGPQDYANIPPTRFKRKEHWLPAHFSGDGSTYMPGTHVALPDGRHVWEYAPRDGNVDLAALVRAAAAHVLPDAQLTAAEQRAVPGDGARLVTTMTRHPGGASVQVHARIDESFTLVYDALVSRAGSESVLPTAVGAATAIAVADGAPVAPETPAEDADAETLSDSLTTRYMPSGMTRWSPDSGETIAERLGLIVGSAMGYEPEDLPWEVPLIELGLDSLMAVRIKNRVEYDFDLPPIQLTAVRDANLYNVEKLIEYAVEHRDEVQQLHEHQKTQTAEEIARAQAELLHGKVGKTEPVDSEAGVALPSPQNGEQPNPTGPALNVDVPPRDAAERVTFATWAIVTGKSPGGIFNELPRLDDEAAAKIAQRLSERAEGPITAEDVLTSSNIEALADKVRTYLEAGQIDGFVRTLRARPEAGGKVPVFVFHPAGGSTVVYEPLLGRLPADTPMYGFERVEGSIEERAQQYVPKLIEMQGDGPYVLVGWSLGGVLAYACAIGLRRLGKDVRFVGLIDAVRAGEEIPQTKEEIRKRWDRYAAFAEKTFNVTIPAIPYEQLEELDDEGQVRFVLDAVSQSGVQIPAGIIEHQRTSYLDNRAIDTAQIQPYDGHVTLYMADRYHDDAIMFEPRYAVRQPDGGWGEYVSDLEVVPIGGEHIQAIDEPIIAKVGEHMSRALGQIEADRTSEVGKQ
UniProt P9WFT3, whole entry: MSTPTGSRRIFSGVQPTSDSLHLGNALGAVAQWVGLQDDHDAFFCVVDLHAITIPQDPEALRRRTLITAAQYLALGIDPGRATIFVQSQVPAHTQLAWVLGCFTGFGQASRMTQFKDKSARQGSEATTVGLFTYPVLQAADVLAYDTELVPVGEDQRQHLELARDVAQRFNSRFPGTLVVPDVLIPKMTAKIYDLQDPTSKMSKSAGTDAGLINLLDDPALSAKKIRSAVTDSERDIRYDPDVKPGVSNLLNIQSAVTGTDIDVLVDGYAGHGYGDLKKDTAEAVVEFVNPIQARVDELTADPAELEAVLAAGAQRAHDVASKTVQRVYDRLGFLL
UniProt Q4DA54, 1-478: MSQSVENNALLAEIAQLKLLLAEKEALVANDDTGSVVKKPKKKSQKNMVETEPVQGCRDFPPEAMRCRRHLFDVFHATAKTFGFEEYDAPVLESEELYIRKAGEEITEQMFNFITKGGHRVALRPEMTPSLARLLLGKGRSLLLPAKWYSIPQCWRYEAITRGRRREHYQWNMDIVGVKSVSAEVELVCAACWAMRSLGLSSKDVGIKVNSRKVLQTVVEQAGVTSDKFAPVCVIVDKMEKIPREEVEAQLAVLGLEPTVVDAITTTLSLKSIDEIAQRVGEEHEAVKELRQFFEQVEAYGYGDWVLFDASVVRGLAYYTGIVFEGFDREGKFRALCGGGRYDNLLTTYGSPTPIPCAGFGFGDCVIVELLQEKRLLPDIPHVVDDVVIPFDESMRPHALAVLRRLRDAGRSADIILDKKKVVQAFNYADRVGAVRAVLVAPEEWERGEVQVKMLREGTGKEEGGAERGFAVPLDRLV

From ChEMBL document CHEMBL3988442, “University of Dundee, Small-Polar-MMV Screening Library” (2021).

Each number is a percent effect as filed.
How 0% and 100% were set is not recorded. Most values in the screen are low, and negative values occur.
This is an unselected part of the compounds tested.

LiHisRS: 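Histidine-tRNA ligase, Leishmania infantum (UniProt A4I591). Enzyme assay of histidyl-tRNA synthetase; the read-out is not stated. Compounds at 30 µM. The record gives no direction; compounds that gave an IC50 in retests scored well above the rest, so higher reads as stronger inhibition. The assay is labelled LdHisRS but filed under L. infantum. About 69,000 compounds were tested under these conditions; 0.6% (about 410) showed 50% or more at least once.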
Pks13 thioesterase: 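Polyketide synthase Pks13, Mycobacterium tuberculosis (UniProt I6X8D2). Enzyme assay of the thioesterase domain of polyketide synthase 13; the read-out is not stated. Compounds at 30 µM. The record gives no direction; the compounds picked for IC50 retests had high values, so higher reads as stronger inhibition. Size under these conditions: about 67,000 compounds, about 300 of them at 50% or above in at least one test.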
MtTrpRS: 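Enzyme assay of tryptophanyl-tRNA synthetase; the read-out is not stated. Target: Tryptophan-tRNA ligase, Mycobacterium tuberculosis (UniProt P9WFT3). Compounds at 10 µM. Higher most likely means stronger inhibition; the record gives no direction and few retests gave an IC50. Of about 65,000 compounds tested this way, about 64 (0.098%) reached 50% or more in at least one test.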
TcHisRS: 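Enzyme assay of histidyl-tRNA synthetase; the read-out is not stated. Target: Histidine-tRNA ligase, Trypanosoma cruzi CL Brener (UniProt Q4DA54). Compounds at 30 µM. Higher reads as stronger inhibition (inferred: compounds with an IC50 in retests scored well above the rest). About 69,000 compounds were tested under these conditions; 0.045% (about 31) showed 50% or more at least once.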

compound: COCc1cnc2n1CCN(C(=O)c1cc3ccccc3o1)C2C (stereo not drawn)
LiHisRS: 4
Pks13 thioesterase: -41.13
MtTrpRS: 4.334
TcHisRS: 1.031

compound: Cn1ccc(C(=O)N2CCC3(CC2)CC(Nc2cnccn2)CO3)n1 (stereo not drawn)
LiHisRS: 13.21
Pks13 thioesterase: 9.408
TcHisRS: 11.11

compound: Cc1ccc([C@@H]2CN(C(=O)CCc3ccco3)C[C@H]2N(C)C)cc1
LiHisRS: 8.333
Pks13 thioesterase: -12.81
MtTrpRS: 1.37
TcHisRS: 7.595

compound: O=C(NCCCN1CCCC1=O)c1ccc(-n2ccc3ccccc32)s1
LiHisRS: 20.22
Pks13 thioesterase: 11.34
MtTrpRS: -0.4402
TcHisRS: 8.543

compound: COCC1CN(C(=O)Cc2ccccn2)Cc2ncnn2C1 (stereo not drawn)
LiHisRS: 6.849
Pks13 thioesterase: -18.4
MtTrpRS: 0.7229
TcHisRS: 7.921

compound: O=C(NCC1CCOCC1)[C@H]1C[C@@H]2CCN(Cc3ccncc3)C[C@@H]2O1
LiHisRS: 9.434
Pks13 thioesterase: -1.751
MtTrpRS: 0.1049
TcHisRS: 4.865

compound: Cc1nc(C2CCCN2C(=O)CCn2cncn2)no1 (stereo not drawn)
LiHisRS: 7.692
Pks13 thioesterase: -19.75
MtTrpRS: -10.15
TcHisRS: 1.714

compound: CC(C)n1cc(C(=O)NC2CN3CCC2CC3)c2ccccc21 (stereo not drawn)
LiHisRS: -5.263
Pks13 thioesterase: -30.81
MtTrpRS: 3.291
TcHisRS: -4.094

compound: COc1cccc(C(=O)NCC(c2cccn2C)N2CCCC2)c1OC (stereo not drawn)
LiHisRS: 6.849
Pks13 thioesterase: -15.62
MtTrpRS: 6.955
TcHisRS: 10

compound: CS(=O)(=O)N1CCC(NC(=O)COc2ccc3ccccc3c2)CC1
LiHisRS: 13.68
Pks13 thioesterase: -12.01
MtTrpRS: -0.05679
TcHisRS: 4.274

compound: O=C([C@H]1CCCO1)N1CCc2ncc(CN3CCOCC3)n2CC1
LiHisRS: 22
Pks13 thioesterase: -10.52
MtTrpRS: 2.346
TcHisRS: 13.73

compound: CC(O)CN1CCN(C(=O)c2cccc3[nH]ncc23)CC1 (stereo not drawn)
LiHisRS: 7.547
Pks13 thioesterase: -1.613
MtTrpRS: 2.143
TcHisRS: 1.667

compound: CN(Cc1noc(C2CC2)n1)C1CCN(Cc2nc(C3CC3)no2)C1 (stereo not drawn)
LiHisRS: 7.08
Pks13 thioesterase: -1.151
MtTrpRS: 3.297
TcHisRS: 3.509

compound: CCN(CC(=O)NCCc1nc(C)no1)Cc1ccc(Cl)cc1
LiHisRS: 6.667
Pks13 thioesterase: 2.519
MtTrpRS: -0.5093
TcHisRS: -1.299

compound: COc1ccccc1CNC(=O)Cn1ncc2c1c(C)nn2C
LiHisRS: 17.48
Pks13 thioesterase: -22.19
MtTrpRS: 2.01
TcHisRS: 1.639

compound: CCCS(=O)(=O)NCc1ncc(C)c(OC)c1C
LiHisRS: 17.65
Pks13 thioesterase: -6.428
MtTrpRS: 0.4542
TcHisRS: 3.015

compound: CC(C)NC(=O)N(C)C1CCN(c2ccccc2Cl)C1=O (stereo not drawn)
LiHisRS: 15.66
Pks13 thioesterase: -22.8
MtTrpRS: 2.719
TcHisRS: 4.878

compound: CCn1cnnc1CNC(=O)N1CCCC1
LiHisRS: -0.8696
Pks13 thioesterase: -18.08
MtTrpRS: 15.59
TcHisRS: -1.69

compound: O=C(NCc1ccc(-n2cncn2)nc1)c1cc(Cl)c2c(c1)OCCO2
LiHisRS: 11.4
Pks13 thioesterase: -1.639
MtTrpRS: 0.9887
TcHisRS: 3.198

compound: CN1Cc2ccccc2CC1C(=O)N1CCN(CCS(C)(=O)=O)CC1 (stereo not drawn)
LiHisRS: -5.714
Pks13 thioesterase: 2.433
MtTrpRS: 1.165
TcHisRS: 3.093

compound: CCc1ccc2nc(C)cc(C(=O)NCc3csc(N(C)C)n3)c2c1
LiHisRS: 13.98
Pks13 thioesterase: -2.254
MtTrpRS: -5.131
TcHisRS: 7.853

compound: Cc1ccc(C2CN(C(=O)c3c(C)cc(C)[nH]c3=O)CCO2)c(C)c1 (stereo not drawn)
LiHisRS: 35.35
Pks13 thioesterase: -16.08
MtTrpRS: -1.273
TcHisRS: -0.6452

compound: O=C(c1ccncc1)N1CCC(c2nc(O)cc(-c3ccncc3)n2)C1 (stereo not drawn)
LiHisRS: 13.87
Pks13 thioesterase: -24.05
MtTrpRS: -1.586
TcHisRS: 1.639

compound: Cc1cc(C2CCCN(Cc3noc(Cc4ccccc4)n3)C2)n[nH]1 (stereo not drawn)
LiHisRS: 8.333
Pks13 thioesterase: 17.45
MtTrpRS: -3.207
TcHisRS: 0.8696

compound: CCCN(C)S(=O)(=O)NC(=O)c1ccc(CC)o1
LiHisRS: 12.07
Pks13 thioesterase: -23.19
MtTrpRS: -0.2244
TcHisRS: 3.665

compound: Cc1cc(NC(=O)CNc2cccc(C(=O)N3CCCC(O)C3)c2)no1 (stereo not drawn)
LiHisRS: 10.96
Pks13 thioesterase: -11.46
MtTrpRS: 0.149
TcHisRS: 7.65

compound: O=C1NCCN1C1CCN(CCc2cccs2)CC1
LiHisRS: 0
Pks13 thioesterase: -20.9
MtTrpRS: 4.926
TcHisRS: 0.3774

compound: COCCn1cc(NC(=O)NC(C)CCc2ccccc2)ccc1=O (stereo not drawn)
LiHisRS: 98.33
Pks13 thioesterase: -22.49
MtTrpRS: -2.207
TcHisRS: 5.195

compound: CN(C)C(=O)CNC(=O)c1cc(Br)c2c(c1)OCCO2
LiHisRS: 26.21
Pks13 thioesterase: -16.34
MtTrpRS: 1.421
TcHisRS: 2.905

2 of the entries, repeated:

compound	LiHisRS	Pks13 thioesterase	MtTrpRS	TcHisRS
CC(C)n1cc(C(=O)NC2CN3CCC2CC3)c2ccccc21 (stereo not drawn)	-5.263	-30.81	3.291	-4.094
CCCS(=O)(=O)NCc1ncc(C)c(OC)c1C	17.65	-6.428	0.4542	3.015